According to patent US20060008512A1, “Composition and methods for improved animal performance” (priority 2004, published 2006):

Tests used:
[1] = test system: Hy-Line W-36 White Leghorn hens; conditions: for Feed Intake: day 22 to day 28
Procedure: Experiment 1. […] While acknowledging that injecting individual hens is commercially impractical (Webster, 2003), nevertheless an initial study was needed to establish the efficacy of T4 when it is delivered directly into the hens in precisely measured doses. The photoperiod was 17 hours of light per day (0330 hours to 2030 hours).

[2] = test system: Hy-Line W-36 White Leghorn hens
Procedure: Experiment 2. […] The photoperiod was 17 hours of light per day (0330 hours to 2030 hours).
The objective was to use T4 to humanely induce molting in hens that are continuously provided with ad libitum access to palatable feed meeting or exceeding all National Research Council (1994) standards. Developing a fully efficacious yet affordable molting protocol was predicated on determining the minimum effective level for T4 supplementation. Factors that potentially may affect the required level of T4 supplementation include: (1) uncertainty regarding the efficiency of T4 absorption by the gastrointestinal tract, (2) the possibility that continuous dietary ingestion of T4 could trigger substantially different biological responses when compared single daily injections, and (3) the likelihood that daily T4 intake would diminish in parallel with molt-related reductions in feed intake associated with cessation in egg production. A spontaneous and voluntary loss of appetite (anorexia) commonly accompanies seasonal molting and broodiness in a variety of avian species (Berry, 2003; Webster, 2003). Accordingly, the responses of hens to diets containing 10, 20, and 40 mg T4/kg, to bracket the anticipated range of T4 needed to cause an effective molt, were determined.

[3] = test system: Hy-Line W-36 White Leghorn hens; remark: listed apart in the source
Excerpt: Experiment 3. […] The photoperiod serves as the primary environmental signal that regulates reproductive function in many avian species. Increasing the photoperiod promotes maturation of the gonads and reproductive tract, whereas reducing the photoperiod causes the gonads and reproductive tract to regress and molting to occur.

[4] = test system: young rats; conditions: cited from earlier work
[5] = 10 mg/kg of feed 6 d from day 5, Day 11-14
[6] = 10 mg/kg of feed 6 d from day 5, Days 5-7
[7] = 10 mg/kg of feed 6 d from day 5, Days 8-10
[8] = 10 mg/kg of feed 10 d from day 5, Day 11-14
[9] = 10 mg/kg of feed 10 d from day 5, Days 5-7
[10] = 10 mg/kg of feed 10 d from day 5, Days 8-10
[11] = 20 mg/kg of feed 6 d from day 5, Day 11-14
[12] = 20 mg/kg of feed 6 d from day 5, Days 5-7
[13] = 20 mg/kg of feed 6 d from day 5, Days 8-10
[14] = 20 mg/kg of feed 10 d from day 5, Day 11-14
[15] = 20 mg/kg of feed 10 d from day 5, Days 5-7
[16] = 20 mg/kg of feed 10 d from day 5, Days 8-10
[17] = 40 mg/kg of feed 6 d from day 5, Day 11-14
[18] = 40 mg/kg of feed 6 d from day 5, Days 5-7
[19] = 40 mg/kg of feed 6 d from day 5, Days 8-10
[20] = 40 mg/kg of feed 10 d from day 5, Day 11-14
[21] = 40 mg/kg of feed 10 d from day 5, Days 5-7
[22] = 40 mg/kg of feed 10 d from day 5, Days 8-10
[23] = 20 mg/kg of feed 12 d from day 13, 8 hr light, Day 30-34
[24] = 20 mg/kg of feed 12 d from day 13, 8 hr light, Days 13-15
[25] = 20 mg/kg of feed 12 d from day 13, 8 hr light, Days 16-22
[26] = 20 mg/kg of feed 12 d from day 13, 17 hr light, Day 30-34
[27] = 20 mg/kg of feed 12 d from day 13, 17 hr light, Days 13-15
[28] = 20 mg/kg of feed 12 d from day 13, 17 hr light, Days 16-22
[29] = 40 mg/kg of feed 12 d from day 13, 8 hr light, Day 30-34
[30] = 40 mg/kg of feed 12 d from day 13, 8 hr light, Days 13-15
[31] = 40 mg/kg of feed 12 d from day 13, 8 hr light, Days 16-22
[32] = 40 mg/kg of feed 12 d from day 13, 17 hr light, Day 30-34
[33] = 40 mg/kg of feed 12 d from day 13, 17 hr light, Days 13-15
[34] = 40 mg/kg of feed 12 d from day 13, 17 hr light, Days 16-22

For `N[C@@H](Cc1cc(I)c(Oc2cc(I)c(O)c(I)c2)c(I)c1)C(=O)O` [L-thyroxine, 3,5,3′,5′-tetraiodo-L-thyronine], the “Feed Intake” value ([1]; 250 mcg/kg body wt i.m. 12 d) was 58.7 g/hen/day, the “Feed Intake” value ([1]; 500 mcg/kg body wt i.m. 8 d) was 52.3 g/hen/day and the “Feed Intake” value ([1]; 1,000 mcg/kg body wt i.m. 8 d) was 31.4 g/hen/day. The “Feed Intake” value ([1]; 2,000 mcg/kg body wt i.m. 3 d) was 20.2 g/hen/day, the “Feed Intake” value ([1]; 4,000 mcg/kg body wt i.m. 3 d) was 11.7 g/hen/day and the “Feed intake compared with Saline-injected controls” value ([1]; hens injected with ≧500 μg T4) was “significantly lower”. The “Feed consumption (FC)” value [2, 5] was 81.3 g/hen/d, the “Feed consumption change from days 2-4 (% FCC)” value [2, 5] was −19.7% and the “Feed consumption (FC)” value ([2]; 10 mg/kg of feed 6 d from day 5, Days 2-4) was 101.3 g/hen/d. For the same molecule, the “Feed consumption (FC)” value [2, 6] was 60.0 g/hen/d, the “Feed consumption change from days 2-4 (% FCC)” value [2, 6] was −40.8% and the “Feed consumption (FC)” value [2, 7] was 35.3 g/hen/d. For the same molecule, the “Feed consumption change from days 2-4 (% FCC)” value [2, 7] was −65.2%, the “Feed consumption (FC)” value [2, 8] was 47.3 g/hen/d and the “Feed consumption change from days 2-4 (% FCC)” value [2, 8] was −43.7%. For the same molecule, the “Feed consumption (FC)” value ([2]; 10 mg/kg of feed 10 d from day 5, Days 2-4) was 84.0 g/hen/d, the “Feed consumption (FC)” value [2, 9] was 56.0 g/hen/d and the “Feed consumption change from days 2-4 (% FCC)” value [2, 9] was −33.3%. For the same molecule, the “Feed consumption (FC)” value [2, 10] was 33.7 g/hen/d, the “Feed consumption change from days 2-4 (% FCC)” value [2, 10] was −59.9% and the “Feed consumption (FC)” value [2, 11] was 73.7 g/hen/d. For the same molecule, the “Feed consumption change from days 2-4 (% FCC)” value [2, 11] was −28.4%, the “Feed consumption (FC)” value ([2]; 20 mg/kg of feed 6 d from day 5, Days 2-4) was 103.0 g/hen/d and the “Feed consumption (FC)” value [2, 12] was 42.0 g/hen/d. The “Feed consumption change from days 2-4 (% FCC)” value [2, 12] was −59.2%, the “Feed consumption (FC)” value [2, 13] was 33.7 g/hen/d and the “Feed consumption change from days 2-4 (% FCC)” value [2, 13] was −67.3%. For the same molecule, the “Feed consumption (FC)” value [2, 14] was 32.7 g/hen/d, the “Feed consumption change from days 2-4 (% FCC)” value [2, 14] was −72.9% and the “Feed consumption (FC)” value ([2]; 20 mg/kg of feed 10 d from day 5, Days 2-4) was 120.7 g/hen/d. For the same molecule, the “Feed consumption (FC)” value [2, 15] was 54.7 g/hen/d, the “Feed consumption change from days 2-4 (% FCC)” value [2, 15] was −54.7% and the “Feed consumption (FC)” value [2, 16] was 30.0 g/hen/d. For the same molecule, the “Feed consumption change from days 2-4 (% FCC)” value [2, 16] was −75.1%, the “Reduction of feed intake” value ([2]; 40 mg T4/kg test diet for 10 days) was “approximately 85%” and the “Feed consumption (FC)” value [2, 17] was 46.7 g/hen/d. The “Feed consumption change from days 2-4 (% FCC)” value [2, 17] was −52.5%, the “Feed consumption (FC)” value ([2]; 40 mg/kg of feed 6 d from day 5, Days 2-4) was 98.3 g/hen/d and the “Feed consumption (FC)” value [2, 18] was 36.7 g/hen/d. For the same molecule, the “Feed consumption change from days 2-4 (% FCC)” value [2, 18] was −62.7%, the “Feed consumption (FC)” value [2, 19] was 13.7 g/hen/d and the “Feed consumption change from days 2-4 (% FCC)” value [2, 19] was −86.1%. For the same molecule, the “Feed consumption (FC)” value [2, 20] was 19.3 g/hen/d, the “Feed consumption change from days 2-4 (% FCC)” value [2, 20] was −83.4% and the “Feed consumption (FC)” value ([2]; 40 mg/kg of feed 10 d from day 5, Days 2-4) was 116.3 g/hen/d. The “Feed consumption (FC)” value [2, 21] was 37.3 g/hen/d, the “Feed consumption change from days 2-4 (% FCC)” value [2, 21] was −67.9% and the “Feed consumption (FC)” value [2, 22] was 22.0 g/hen/d. The “Feed consumption change from days 2-4 (% FCC)” value [2, 22] was −81.1%, the “Feed consumption (FC)” value [3, 23] was 82.5 g/hen/d and the “Feed consumption change from days 1-12 (% FCC)” value [3, 23] was −32.0%. For the same molecule, the “Feed consumption (FC)” value ([3]; 20 mg/kg of feed 12 d from day 13, 8 hr light, Days 1-12) was 121.3 g/hen/d, the “Feed consumption (FC)” value [3, 24] was 41.8 g/hen/d and the “Feed consumption change from days 1-12 (% FCC)” value [3, 24] was −65.5%. The “Feed consumption (FC)” value [3, 25] was 44.5 g/hen/d, the “Feed consumption change from days 1-12 (% FCC)” value [3, 25] was −63.3% and the “Feed consumption (FC)” value [3, 26] was 135.0 g/hen/d. The “Feed consumption change from days 1-12 (% FCC)” value [3, 26] was 11.1%, the “Feed consumption (FC)” value ([3]; 20 mg/kg of feed 12 d from day 13, 17 hr light, Days 1-12) was 121.5 g/hen/d and the “Feed consumption (FC)” value [3, 27] was 58.0 g/hen/d. For the same molecule, the “Feed consumption change from days 1-12 (% FCC)” value [3, 27] was −52.3%, the “Feed consumption (FC)” value [3, 28] was 51.8 g/hen/d and the “Feed consumption change from days 1-12 (% FCC)” value [3, 28] was −57.4%. For the same molecule, the “Feed consumption (FC)” value [3, 29] was 104.8 g/hen/d, the “Feed consumption change from days 1-12 (% FCC)” value [3, 29] was −9.5% and the “Feed consumption (FC)” value ([3]; 40 mg/kg of feed 12 d from day 13, 8 hr light, Days 1-12) was 115.8 g/hen/d. The “Feed consumption (FC)” value [3, 30] was 36.8 g/hen/d, the “Feed consumption change from days 1-12 (% FCC)” value [3, 30] was −68.2% and the “Feed consumption (FC)” value [3, 31] was 35.3 g/hen/d. For the same molecule, the “Feed consumption change from days 1-12 (% FCC)” value [3, 31] was −69.5%, the “Feed consumption (FC)” value [3, 32] was 93.3 g/hen/d and the “Feed consumption change from days 1-12 (% FCC)” value [3, 32] was −9.7%. For the same molecule, the “Feed consumption (FC)” value ([3]; 40 mg/kg of feed 12 d from day 13, 17 hr light, Days 1-12) was 103.3 g/hen/d, the “Feed consumption (FC)” value [3, 33] was 42.0 g/hen/d and the “Feed consumption change from days 1-12 (% FCC)” value [3, 33] was −59.3%. For the same molecule, the “Feed consumption (FC)” value [3, 34] was 37.5 g/hen/d, the “Feed consumption change from days 1-12 (% FCC)” value [3, 34] was −63.7% and the “Magnesium content of the blood serum” value ([4]; 2 mg L-thyroxine/kg diet, 200 mg magnesium/kg, fell from 1.87) was 0.50 mg %. For the same molecule, the Serum magnesium ([4]; thyroxine diet with high magnesium (1,600 mg/kg)) was 1.67 mg %.

Where two headings read alike, the source gives them in different places.
